Reference: US20010018211A1
No constants are given. Whether binding was seen depends on the method and setting. Binding seen in cells or lysates may run through a third protein. Some entries that bind do so weakly or less than the wild type.

By UniProt entry, the sequences of proteins in these tests, tags left out.
UniProt Q12983: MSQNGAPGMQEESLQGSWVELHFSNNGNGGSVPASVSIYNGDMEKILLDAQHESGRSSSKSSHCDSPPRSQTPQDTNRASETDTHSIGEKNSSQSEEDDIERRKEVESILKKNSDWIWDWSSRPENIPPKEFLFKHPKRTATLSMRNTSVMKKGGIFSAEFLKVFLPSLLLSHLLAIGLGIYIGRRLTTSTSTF

Tests used:
Assay in all cases: yeast two-hybrid or co-immunoprecipitation (data not shown)
[1] = target: T1, Nip1 (UniProt Q12981)
T1 sequence (looked up): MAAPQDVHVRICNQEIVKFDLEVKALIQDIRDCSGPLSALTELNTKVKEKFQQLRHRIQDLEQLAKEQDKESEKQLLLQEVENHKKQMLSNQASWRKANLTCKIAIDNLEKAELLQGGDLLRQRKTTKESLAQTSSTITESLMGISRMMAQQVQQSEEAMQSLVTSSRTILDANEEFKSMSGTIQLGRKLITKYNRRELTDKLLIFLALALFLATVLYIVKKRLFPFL

[2] = target: T2, Nip2 (UniProt Q12982)
T2 sequence (looked up): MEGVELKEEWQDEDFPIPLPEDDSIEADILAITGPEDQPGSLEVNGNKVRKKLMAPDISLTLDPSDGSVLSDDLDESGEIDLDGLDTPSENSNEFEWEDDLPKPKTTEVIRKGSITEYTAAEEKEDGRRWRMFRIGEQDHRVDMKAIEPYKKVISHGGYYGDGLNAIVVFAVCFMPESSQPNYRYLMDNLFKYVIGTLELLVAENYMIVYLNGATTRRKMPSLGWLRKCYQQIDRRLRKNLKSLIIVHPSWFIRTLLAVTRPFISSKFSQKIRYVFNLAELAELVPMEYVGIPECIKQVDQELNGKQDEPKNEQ

[3] = target: Nip3 (UniProt Q12983)
[4] = target: c-Raf-1 (UniProt P04049)

binding [1]: binds
binding [2]: binds
binding [3]: binds
binding [4]: binds
Substance: wild type human Bcl-2 (from UniProt P10415 1-239)
